The source of these data is patent US4056626A, “Pharmaceutical composition containing benzofuran derivative” (Kakenyaku Kako Co., Ltd., priority 1971, dated 1977).

This assay deals with isoproterenol antagonism concerning myocardial contractile force and heart rate in isolated guinea-pig atria. In words: isoproterenol antagonism in isolated guinea-pig atria. Particulars: 37° C., isoproterenol 1 × 10^-8 g./ml., 50% inhibition. On the procedure:
With respect to the present benzofuran derivatives and Propranolol, there was tested isoproterenol antagonism concerning myocardial contractile force and heart rate in isolated guinea-pig atria (Cf. The Journal of Pharmacology and Experimental Therapeutics, Vol. 168, No. 1, pages 116 to 126, 1969).
Isolated guinea-pig atrium was mounted in a chamber containing Ringer-Lockesolution (37° C.), through which a mixed gas of 95% O2 and 5% CO2 was continuously bubbled. Isoproterenol was added to the solution at a concentration of 1 × 10^-^8 g./ml. 50% inhibitions of isopreterenol responses and relative activities were determined by the same manner as described in Example 54.

Turning to `CC(C)NCC(O)COc1cccc2ccccc12` (centres unmarked) [Propranolol, reference compound], the “Inhibition of increase in heart rate ED 50” value is 0.1 mg/L and the “Inhibition of increase in myocardial contractile force ED 50” value turned out to be 0.01 mg/L.
